Reference: PubChem BioAssay AID1224831 (NIAID, 2016)
Test: 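Confirming genome-wide hits on LPS-triggered TNF-alpha induction with independent siRNA sequences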 (follow-up of hits). Cells: human THP-1 B5 monocytic leukaemia cells carrying a TNF promoter luciferase reporter, made macrophage-like with PMA. Knock-down reagent: single siRNA against human genes, 50 nM. Timing: about 68 h of knock-down, then 4 h LPS. Treatment: LPS (Salmonella minnesota, TLR-grade) at 10 ng/ml for 4 h; PMA 5 ng/ml present during knock-down. Measured: 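TNF promoter reporter read as dual luciferase ratio after 4 h LPS, normalised per plate to its median, given as replicate mean robust z-score per siRNA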. Scale: TNF reporter z-score: higher = stronger LPS-induced TNF reporter signal; z-score, median over gene's siRNAs: higher = stronger TNF reporter signal across the gene's siRNAs. Rule for the call: 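Active when the replicate mean z-score is about -1 or lower, or about 1.5 or higher; lowered and raised TNF reporter signal both count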. Calls: active = changed TNF reporter (either direction); inactive = little change.
The whole screen tested about 3,500 reagents; shown is a random part of them. Over the whole deposit, 731 (21%) were called active. 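Active means either lowered or raised reporter signal; the gene-median score did not drive the per-siRNA calls.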 Unmarked entries are inactive. Reagents against one gene are numbered here.

| target gene | reagent no. | TNF reporter z-score, replicate mean | z-score, median over gene's siRNAs |
| --- | --- | --- | --- |
| PACSIN1 (protein kinase C and casein kinase substrate in neurons 1) | 1 | -0.97 | -0.085 |
| PACSIN1 (protein kinase C and casein kinase substrate in neurons 1) | 2 | -0.51 | -0.085 |
| PACSIN1 (protein kinase C and casein kinase substrate in neurons 1) | 3 | -0.12 | -0.085 |
| PACSIN1 (protein kinase C and casein kinase substrate in neurons 1) | 4 | -0.05 | -0.085 |
| PACSIN1 (protein kinase C and casein kinase substrate in neurons 1) | 5 | 0.24 | -0.085 |
| PACSIN1 (protein kinase C and casein kinase substrate in neurons 1) | 6 | 0.37 | -0.085 |
| UBALD1 (UBA like domain containing 1) | 1 | 1.05 | 0.53 |
| UBALD1 (UBA like domain containing 1) | 2 | -0.15 | 0.53 |
| UBALD1 (UBA like domain containing 1) | 3 | 1.6 (active) | 0.53 |
| UBALD1 (UBA like domain containing 1) | 4 | -0.17 | 0.53 |
| UBALD1 (UBA like domain containing 1) | 5 | 1.8 (active) | 0.53 |
| UBALD1 (UBA like domain containing 1) | 6 | 0.01 | 0.53 |
| ABI1 (abl interactor 1) | 1 | -0.22 | 0 |
| ABI1 (abl interactor 1) | 2 | 0.22 | 0 |
| ABI1 (abl interactor 1) | 3 | 0.33 | 0 |
| ABI1 (abl interactor 1) | 4 | -0.75 | 0 |
| ABI1 (abl interactor 1) | 5 | 0.91 | 0 |
| ABI1 (abl interactor 1) | 6 | -0.79 | 0 |
| AURKB (aurora kinase B) | 1 | -0.3 | 0.09 |
| AURKB (aurora kinase B) | 2 | 1.29 | 0.09 |
| AURKB (aurora kinase B) | 3 | 0.71 | 0.09 |
| AURKB (aurora kinase B) | 4 | -0.64 | 0.09 |
| AURKB (aurora kinase B) | 5 | 0.48 | 0.09 |
| AURKB (aurora kinase B) | 6 | -0.64 | 0.09 |
| SOX13 (SRY-box transcription factor 13) | 1 | 1.32 | 0.78 |
| SOX13 (SRY-box transcription factor 13) | 2 | 0.74 | 0.78 |
| SOX13 (SRY-box transcription factor 13) | 3 | 0.26 | 0.78 |
| SOX13 (SRY-box transcription factor 13) | 4 | -0.7 | 0.78 |
| SOX13 (SRY-box transcription factor 13) | 5 | 1.19 | 0.78 |
| SOX13 (SRY-box transcription factor 13) | 6 | 0.82 | 0.78 |
| SHFL (shiftless antiviral inhibitor of ribosomal frameshifting) | 1 | -0.39 | -0.33 |
| SHFL (shiftless antiviral inhibitor of ribosomal frameshifting) | 2 | -0.28 | -0.33 |
| SHFL (shiftless antiviral inhibitor of ribosomal frameshifting) | 3 | -0.38 | -0.33 |
| SHFL (shiftless antiviral inhibitor of ribosomal frameshifting) | 4 | -0.61 | -0.33 |
| SHFL (shiftless antiviral inhibitor of ribosomal frameshifting) | 5 | 0.32 | -0.33 |
| SHFL (shiftless antiviral inhibitor of ribosomal frameshifting) | 6 | 0.26 | -0.33 |

Entries listed so far whose gene name starts with P or p (6):
| target gene | reagent no. | TNF reporter z-score, replicate mean | z-score, median over gene's siRNAs |
| --- | --- | --- | --- |
| PACSIN1 (protein kinase C and casein kinase substrate in neurons 1) | 1 | -0.97 | -0.085 |
| PACSIN1 (protein kinase C and casein kinase substrate in neurons 1) | 2 | -0.51 | -0.085 |
| PACSIN1 (protein kinase C and casein kinase substrate in neurons 1) | 3 | -0.12 | -0.085 |
| PACSIN1 (protein kinase C and casein kinase substrate in neurons 1) | 4 | -0.05 | -0.085 |
| PACSIN1 (protein kinase C and casein kinase substrate in neurons 1) | 5 | 0.24 | -0.085 |
| PACSIN1 (protein kinase C and casein kinase substrate in neurons 1) | 6 | 0.37 | -0.085 |
